Construct, isoform or probe ends are uncertain for at least one entry. Where cells or extracts were used, other partners may take part. For part of these data: A negative result means that nothing was seen under these conditions.

Data set [1] deals with E2F complex (refed-induced, liver nuclear extract) (Rattus norvegicus). The data set can be described thus: competition with a labelled probe. Conditions: protein in an extract, protein details: fasted-refed rat liver nuclear extract.
For data set [2], the system named is IRP-A complex (insulin-responsive, liver nuclear extract) (Rattus norvegicus). The data set can be described thus: competition with a labelled probe. Conditions: protein in an extract.
Data set [3] relates to E2F complex (refed-induced, liver nuclear extract) (Rattus norvegicus). The data set can be described thus: EMSA. Conditions: refed-induced complex of similar mobility to IRP-A on labelled E2 DNA; protein in an extract; protein details: fasted-refed rat liver nuclear extract; label: 32P when used as probe. A general note: A gel shift assay detects complexes by their altered migration in electrophoresis.

For “ATTTAAGTTTCGATCCCTTTCTCAA (double strand) [E2 mutant (GC to TA)]”, the binding result is “no binding” in data set [1] (mutant E2 does not compete, variant of E2 (cognate E2F site) wild-type) and “no binding” in data set [2] (mutant E2 fails to compete, variant of E2 (cognate E2F site) wild-type).
“ATTTAAGTTTCGCGCCCTTTCTCAA (double strand) [E2 (cognate E2F site) wild-type]”: the binding result in data set [2] (completely eliminates IRP-A binding to IRE-A, label: 32P when used as probe) is given as “binds”; in data set [3], “binds”.
As for “TAGTTTTCGCGCTTAAATTTGA (double strand) [DRTF wild-type (E2A promoter site)]”, the binding result in data set [1] (DRTF site competes complex from labelled E2) and in data set [2] (DRTF site completely competes IRP-A from IRE-A) was “binds” each time.

(Values after patent publication US5496831.)
